Drawing on US20210322511A1 (Harvard, published 2021), this text covers binding for one substance.

Amino acid sequences for entries named in this document (tags omitted). A change or cut given only in a name is not applied to a line headed by its entry.
UniProt P07988: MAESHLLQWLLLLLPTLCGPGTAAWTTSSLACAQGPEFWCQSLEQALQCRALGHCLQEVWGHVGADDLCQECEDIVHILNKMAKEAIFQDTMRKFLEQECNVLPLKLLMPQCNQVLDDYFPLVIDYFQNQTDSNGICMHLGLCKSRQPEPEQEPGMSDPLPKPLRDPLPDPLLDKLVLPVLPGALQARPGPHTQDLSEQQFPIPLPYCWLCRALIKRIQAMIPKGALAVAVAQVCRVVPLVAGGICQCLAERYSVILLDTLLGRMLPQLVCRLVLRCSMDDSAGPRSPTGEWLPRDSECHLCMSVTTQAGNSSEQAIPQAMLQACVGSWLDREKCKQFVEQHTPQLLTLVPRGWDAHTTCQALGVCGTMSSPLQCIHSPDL

Results are given in words; binding and its absence hold for the method and conditions named. Some results given as binding are weak or reduced against the parent protein; the word gives no strength.

The experiment has as its target purified human proSP-B (secreted from HEK293 cells, HALO tag removed) (human) (UniProt P07988). The experiment can be described thus: SEC without liposomes.

In the case of “purified human proSP-B (secreted from HEK293 cells, HALO tag removed) (from UniProt P07988 24-381)”, the binding entry is “binds”.
